Data taken from the supplement of paper PMC10849652.
This is one part of the list.

Chains of the proteins cited; added tags and fusions are not shown. Lines headed by an entry give the natural chain unless they say otherwise; changes in a name come on top.
UniProt P52565: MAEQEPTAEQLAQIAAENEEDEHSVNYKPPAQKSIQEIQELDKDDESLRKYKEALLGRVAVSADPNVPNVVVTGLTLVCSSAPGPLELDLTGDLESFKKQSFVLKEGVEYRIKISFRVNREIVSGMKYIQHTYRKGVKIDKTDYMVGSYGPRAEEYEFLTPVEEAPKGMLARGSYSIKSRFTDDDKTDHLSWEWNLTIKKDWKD
UniProt Q63HQ0: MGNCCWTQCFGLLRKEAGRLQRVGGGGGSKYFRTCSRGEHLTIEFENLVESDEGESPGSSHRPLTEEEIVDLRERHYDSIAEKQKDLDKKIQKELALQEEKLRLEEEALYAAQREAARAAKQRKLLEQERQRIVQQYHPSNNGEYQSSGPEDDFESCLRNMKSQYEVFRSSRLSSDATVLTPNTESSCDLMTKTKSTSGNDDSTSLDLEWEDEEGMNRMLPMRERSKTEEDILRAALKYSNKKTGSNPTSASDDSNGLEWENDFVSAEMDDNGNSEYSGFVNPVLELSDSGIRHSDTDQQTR
UniProt P61966: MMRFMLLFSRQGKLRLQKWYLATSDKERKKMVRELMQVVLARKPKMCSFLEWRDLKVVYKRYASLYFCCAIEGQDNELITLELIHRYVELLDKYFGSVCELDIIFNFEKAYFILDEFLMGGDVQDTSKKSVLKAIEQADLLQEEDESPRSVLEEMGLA
UniProt Q9BTT0: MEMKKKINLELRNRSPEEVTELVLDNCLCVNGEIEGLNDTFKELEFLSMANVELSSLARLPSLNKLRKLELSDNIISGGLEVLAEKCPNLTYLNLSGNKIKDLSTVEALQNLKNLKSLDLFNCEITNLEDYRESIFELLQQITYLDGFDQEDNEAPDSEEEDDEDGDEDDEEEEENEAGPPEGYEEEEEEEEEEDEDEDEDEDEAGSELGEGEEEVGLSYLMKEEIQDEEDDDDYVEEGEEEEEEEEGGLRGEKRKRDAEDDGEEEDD
UniProt Q9P2R3: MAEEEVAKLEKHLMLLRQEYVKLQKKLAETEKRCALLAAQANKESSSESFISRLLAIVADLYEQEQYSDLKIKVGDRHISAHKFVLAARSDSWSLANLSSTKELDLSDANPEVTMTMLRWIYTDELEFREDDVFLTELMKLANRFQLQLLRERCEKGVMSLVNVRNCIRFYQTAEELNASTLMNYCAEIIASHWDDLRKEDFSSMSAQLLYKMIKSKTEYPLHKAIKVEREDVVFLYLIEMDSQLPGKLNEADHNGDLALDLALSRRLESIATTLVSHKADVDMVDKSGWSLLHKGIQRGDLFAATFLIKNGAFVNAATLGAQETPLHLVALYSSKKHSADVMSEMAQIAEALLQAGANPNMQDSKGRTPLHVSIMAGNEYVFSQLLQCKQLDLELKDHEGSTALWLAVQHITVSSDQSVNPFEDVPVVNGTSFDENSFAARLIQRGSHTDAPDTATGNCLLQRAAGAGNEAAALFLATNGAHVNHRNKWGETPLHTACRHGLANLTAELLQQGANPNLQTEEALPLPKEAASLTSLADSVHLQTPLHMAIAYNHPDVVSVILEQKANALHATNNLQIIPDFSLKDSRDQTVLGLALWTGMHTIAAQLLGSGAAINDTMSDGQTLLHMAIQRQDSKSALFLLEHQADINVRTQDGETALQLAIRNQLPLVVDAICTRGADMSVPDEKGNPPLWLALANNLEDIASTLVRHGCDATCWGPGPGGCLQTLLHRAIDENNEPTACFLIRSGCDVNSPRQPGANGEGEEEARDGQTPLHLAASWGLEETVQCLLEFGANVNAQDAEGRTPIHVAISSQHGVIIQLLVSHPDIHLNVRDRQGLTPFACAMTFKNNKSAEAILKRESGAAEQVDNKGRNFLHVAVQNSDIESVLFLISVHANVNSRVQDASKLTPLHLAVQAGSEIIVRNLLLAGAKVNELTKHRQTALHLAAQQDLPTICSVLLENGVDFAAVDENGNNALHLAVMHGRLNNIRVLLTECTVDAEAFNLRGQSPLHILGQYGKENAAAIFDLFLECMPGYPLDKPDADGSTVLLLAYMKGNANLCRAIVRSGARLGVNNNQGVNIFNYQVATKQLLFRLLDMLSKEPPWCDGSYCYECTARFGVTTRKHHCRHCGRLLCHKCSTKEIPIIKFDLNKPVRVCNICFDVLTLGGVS
UniProt P50995, whole entry, looked up: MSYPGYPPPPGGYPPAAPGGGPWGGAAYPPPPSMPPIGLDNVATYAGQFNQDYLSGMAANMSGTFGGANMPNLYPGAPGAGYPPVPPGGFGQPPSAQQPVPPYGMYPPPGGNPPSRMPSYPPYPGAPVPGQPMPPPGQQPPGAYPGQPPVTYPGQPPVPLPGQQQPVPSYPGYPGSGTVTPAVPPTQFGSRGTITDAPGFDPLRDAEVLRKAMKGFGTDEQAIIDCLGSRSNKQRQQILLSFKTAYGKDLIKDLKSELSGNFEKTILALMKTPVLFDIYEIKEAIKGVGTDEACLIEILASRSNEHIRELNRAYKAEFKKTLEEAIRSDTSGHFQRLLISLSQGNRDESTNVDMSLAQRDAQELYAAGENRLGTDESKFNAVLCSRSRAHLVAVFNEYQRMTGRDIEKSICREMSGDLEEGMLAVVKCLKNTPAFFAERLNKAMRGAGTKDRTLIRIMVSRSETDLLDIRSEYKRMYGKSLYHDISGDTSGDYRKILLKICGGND
UniProt Q9BZZ5: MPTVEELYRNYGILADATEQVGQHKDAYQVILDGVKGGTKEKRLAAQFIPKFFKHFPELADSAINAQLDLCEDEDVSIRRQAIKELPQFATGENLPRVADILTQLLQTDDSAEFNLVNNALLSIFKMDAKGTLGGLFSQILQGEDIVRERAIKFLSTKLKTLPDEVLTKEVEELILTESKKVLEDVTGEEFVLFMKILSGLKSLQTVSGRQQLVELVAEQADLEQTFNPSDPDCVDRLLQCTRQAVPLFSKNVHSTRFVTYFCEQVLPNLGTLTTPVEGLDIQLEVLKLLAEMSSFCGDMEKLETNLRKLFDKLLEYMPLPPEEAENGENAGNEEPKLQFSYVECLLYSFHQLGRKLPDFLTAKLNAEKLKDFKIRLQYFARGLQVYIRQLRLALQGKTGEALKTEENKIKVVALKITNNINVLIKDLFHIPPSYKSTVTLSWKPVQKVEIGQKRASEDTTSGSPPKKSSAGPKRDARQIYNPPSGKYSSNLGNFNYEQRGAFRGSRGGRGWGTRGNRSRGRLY
UniProt Q8N392: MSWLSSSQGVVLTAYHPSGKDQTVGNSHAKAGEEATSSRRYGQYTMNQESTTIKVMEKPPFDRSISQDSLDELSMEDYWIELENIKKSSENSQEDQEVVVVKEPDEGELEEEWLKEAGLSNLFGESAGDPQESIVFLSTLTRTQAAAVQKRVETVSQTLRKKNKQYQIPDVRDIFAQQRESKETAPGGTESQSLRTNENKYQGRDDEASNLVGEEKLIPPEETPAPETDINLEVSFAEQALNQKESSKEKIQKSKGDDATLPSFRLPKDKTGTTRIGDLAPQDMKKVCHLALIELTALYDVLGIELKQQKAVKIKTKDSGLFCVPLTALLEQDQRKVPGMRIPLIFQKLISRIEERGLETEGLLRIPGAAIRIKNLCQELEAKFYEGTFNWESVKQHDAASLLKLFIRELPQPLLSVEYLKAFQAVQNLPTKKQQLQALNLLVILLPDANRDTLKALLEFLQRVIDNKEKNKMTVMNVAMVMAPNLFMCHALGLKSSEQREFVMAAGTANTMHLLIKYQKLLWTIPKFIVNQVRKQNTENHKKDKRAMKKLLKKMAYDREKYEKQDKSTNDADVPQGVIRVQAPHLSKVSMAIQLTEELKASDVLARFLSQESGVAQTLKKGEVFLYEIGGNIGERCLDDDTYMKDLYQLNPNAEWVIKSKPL
UniProt P84077: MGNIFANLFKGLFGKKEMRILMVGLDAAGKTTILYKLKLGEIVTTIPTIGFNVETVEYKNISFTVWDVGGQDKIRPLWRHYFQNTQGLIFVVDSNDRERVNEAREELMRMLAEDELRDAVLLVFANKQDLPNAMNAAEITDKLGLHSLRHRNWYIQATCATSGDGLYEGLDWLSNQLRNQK
UniProt Q92572: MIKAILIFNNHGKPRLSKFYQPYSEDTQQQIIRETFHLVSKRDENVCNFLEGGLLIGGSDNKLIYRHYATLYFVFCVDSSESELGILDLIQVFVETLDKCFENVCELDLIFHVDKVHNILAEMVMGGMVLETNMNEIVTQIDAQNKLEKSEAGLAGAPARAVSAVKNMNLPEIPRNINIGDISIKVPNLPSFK
UniProt P58335, whole entry, looked up: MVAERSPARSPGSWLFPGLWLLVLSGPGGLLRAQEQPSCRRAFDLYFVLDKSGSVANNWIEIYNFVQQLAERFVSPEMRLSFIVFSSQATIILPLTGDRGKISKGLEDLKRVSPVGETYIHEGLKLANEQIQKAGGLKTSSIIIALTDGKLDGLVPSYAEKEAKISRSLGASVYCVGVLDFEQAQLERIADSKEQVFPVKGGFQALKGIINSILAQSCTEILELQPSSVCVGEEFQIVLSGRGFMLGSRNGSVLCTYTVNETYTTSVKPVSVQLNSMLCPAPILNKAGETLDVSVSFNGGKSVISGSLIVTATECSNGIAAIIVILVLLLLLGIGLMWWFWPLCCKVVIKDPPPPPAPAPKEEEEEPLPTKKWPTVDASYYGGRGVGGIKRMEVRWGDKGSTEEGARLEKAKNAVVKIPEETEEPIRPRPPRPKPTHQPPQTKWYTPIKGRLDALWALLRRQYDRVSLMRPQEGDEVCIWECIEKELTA
UniProt Q96AK3: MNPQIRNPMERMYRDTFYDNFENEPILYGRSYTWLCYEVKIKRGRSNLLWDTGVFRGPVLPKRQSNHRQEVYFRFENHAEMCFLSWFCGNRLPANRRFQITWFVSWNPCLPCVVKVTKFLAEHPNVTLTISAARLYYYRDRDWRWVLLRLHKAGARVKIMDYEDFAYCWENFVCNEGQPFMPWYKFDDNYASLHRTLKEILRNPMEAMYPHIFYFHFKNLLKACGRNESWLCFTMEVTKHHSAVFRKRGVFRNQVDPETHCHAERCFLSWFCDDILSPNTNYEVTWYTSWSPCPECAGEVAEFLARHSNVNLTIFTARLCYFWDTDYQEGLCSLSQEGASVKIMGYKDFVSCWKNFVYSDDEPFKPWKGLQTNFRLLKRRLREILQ
UniProt P18085: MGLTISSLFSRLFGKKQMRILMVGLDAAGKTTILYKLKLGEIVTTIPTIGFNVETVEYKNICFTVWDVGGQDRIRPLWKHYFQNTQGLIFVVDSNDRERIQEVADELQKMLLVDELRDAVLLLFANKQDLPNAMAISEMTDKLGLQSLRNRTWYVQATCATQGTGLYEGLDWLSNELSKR
UniProt P84085: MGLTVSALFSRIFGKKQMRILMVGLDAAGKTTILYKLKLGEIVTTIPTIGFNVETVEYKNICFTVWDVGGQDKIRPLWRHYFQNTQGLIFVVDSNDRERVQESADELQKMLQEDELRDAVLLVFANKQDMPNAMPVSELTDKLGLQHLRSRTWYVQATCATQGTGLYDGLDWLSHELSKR
UniProt P20073: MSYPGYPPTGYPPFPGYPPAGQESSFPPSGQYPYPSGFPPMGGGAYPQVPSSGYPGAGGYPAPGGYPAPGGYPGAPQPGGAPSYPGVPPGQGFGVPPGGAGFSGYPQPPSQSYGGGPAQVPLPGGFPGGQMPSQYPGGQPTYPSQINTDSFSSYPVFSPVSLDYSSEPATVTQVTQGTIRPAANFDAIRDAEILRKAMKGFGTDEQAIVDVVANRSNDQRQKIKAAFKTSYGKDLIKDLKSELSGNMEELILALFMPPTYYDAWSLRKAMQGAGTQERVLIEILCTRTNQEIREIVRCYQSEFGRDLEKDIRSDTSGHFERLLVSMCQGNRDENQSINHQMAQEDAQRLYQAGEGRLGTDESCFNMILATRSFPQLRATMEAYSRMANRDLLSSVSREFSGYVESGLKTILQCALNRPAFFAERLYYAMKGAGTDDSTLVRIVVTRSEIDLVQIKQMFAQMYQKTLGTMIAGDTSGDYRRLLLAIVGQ
UniProt Q8WVL7: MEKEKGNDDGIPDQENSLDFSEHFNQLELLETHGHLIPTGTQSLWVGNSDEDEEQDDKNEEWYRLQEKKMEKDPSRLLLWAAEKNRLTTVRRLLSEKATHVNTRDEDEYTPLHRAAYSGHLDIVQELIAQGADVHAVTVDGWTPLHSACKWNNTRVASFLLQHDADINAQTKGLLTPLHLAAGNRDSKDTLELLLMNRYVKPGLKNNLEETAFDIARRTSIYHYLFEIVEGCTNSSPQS
UniProt Q9HC16: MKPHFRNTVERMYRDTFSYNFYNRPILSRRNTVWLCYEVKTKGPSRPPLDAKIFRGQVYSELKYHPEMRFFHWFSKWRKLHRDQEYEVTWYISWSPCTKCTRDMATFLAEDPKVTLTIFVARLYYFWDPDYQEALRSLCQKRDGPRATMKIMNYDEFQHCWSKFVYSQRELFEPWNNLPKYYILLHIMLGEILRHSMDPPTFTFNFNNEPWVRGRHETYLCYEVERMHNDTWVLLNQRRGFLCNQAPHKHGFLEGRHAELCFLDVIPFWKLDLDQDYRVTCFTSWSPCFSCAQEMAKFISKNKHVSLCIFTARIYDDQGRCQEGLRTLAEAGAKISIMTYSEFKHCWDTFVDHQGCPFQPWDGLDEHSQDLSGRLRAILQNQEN

Legend:
Assay in all cases: log2 fold change, soluble protein after heating vs DMSO (PISA); higher = thermal stabilisation; K562 cells, 10 uM, 30 min; active = over 0.2 and 3.5 SD of the protein, either way, in both replicates (recomputed)
[1] = compound: CC1=C(C=C(C=C1)NC(=O)C2=CC(=CC=C2)C(C)(C)C#N)NC3=CC4=C(C=C3)N=CN(C4=O)C
Procedure, shortened: (§1)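 Aliquots of K562 cells (2×10^6 cells/mL) treated with 10 μM compound for 30 min were heated for 3 min over 48°C-58°C. After pooling and extraction in PBS with 0.5% NP-40 at 4°C, soluble protein from a 21,000xg, 90 min spin was quantified by TMTpro 16plex LC-MS/MS with channel sums equalised. Thermal stability is expressed against control samples, from duplicates, as a log2 fold change.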

[2] = compound: CC1=C(C=C(C=C1)NC(=O)C2=CC(=CC=C2)N(C)C)NC(=O)C3=CC=C(C=C3)O
Procedure, shortened: as §1

[3] = compound: CC1=CC=C(C=C1)SC2=C3C=C(SC3=CN=C2)C(=O)N
Procedure, shortened: as §1

[4] = compound: CC1=NC(=CC=C1)C2=C(N=C(N2)C(C)(C)C)C3=CC4=NC=CN=C4C=C3
Procedure, shortened: as §1

Nexturastat A = compound: CCCCN(Cc1ccc(C(=O)NO)cc1)C(=O)Nc1ccccc1 [Nexturastat A]
Procedure, shortened: as §1

vemurafenib = compound: CCCS(=O)(=O)Nc1ccc(F)c(C(=O)c2c[nH]c3ncc(-c4ccc(Cl)cc4)cc23)c1F [vemurafenib]
Procedure, shortened: as §1

[5] = compound: CCCS(=O)(=O)Nc1ccc(F)c(C(=O)c2c[nH]c3ncc(Cl)cc23)c1F
Procedure, shortened: as §1

[6] = compound: CCCc1cc(C)[nH]c(=O)c1CNC(=O)c1cc(-c2ccnc(N3CCN(C)CC3)c2)cc2c1cnn2C(C)C
Procedure, shortened: as §1

givinostat = compound: CCN(CC)Cc1ccc2cc(COC(=O)Nc3ccc(C(=O)NO)cc3)ccc2c1 [givinostat]
Procedure, shortened: as §1

barasertib = compound: CCN(CCCOc1ccc2c(Nc3cc(CC(=O)Nc4cccc(F)c4)[nH]n3)ncnc2c1)CCOP(=O)(O)O [barasertib]
Procedure, shortened: as §1

Measured: log2 fold change

ANKHD1 isoform 6 (UniProt Q8IWZ3)
inactive: [1] 0.044 | [2] 0.041 | [3] 0.007 | [4] -0.079 | Nexturastat A 0.249 | vemurafenib 0.002 | [5] 0.083 | [6] 0.062 | givinostat 0.071 | barasertib 0.02

ANKZF1 (UniProt Q9H8Y5)
inactive: [1] 0.011 | [2] 0 | [3] -0.055 | [4] -0.059 | Nexturastat A 0.399 | vemurafenib -0.011 | [5] -0.042 | [6] 0.132 | givinostat 0.195 | barasertib 0.04

ANKRD54 (UniProt Q6NXT1)
inactive: [1] -0.021 | [2] 0.004 | [3] 0.029 | [4] 0.124 | Nexturastat A 0.027 | vemurafenib 0 | [5] 0.03 | [6] -0.022 | givinostat -0.016 | barasertib 0.023

ARHGDIA (UniProt P52565)
inactive: [1] 0.01 | [2] 0.016 | [3] -0.019 | [4] -0.012 | Nexturastat A -0.006 | vemurafenib 0.026 | [5] 0.069 | [6] 0.083 | givinostat -0.002 | barasertib 0.031

AP1AR (UniProt Q63HQ0)
inactive: [1] -0.117 | [2] 0.023 | [3] -0.071 | [4] -0.05 | Nexturastat A 0.048 | vemurafenib 0.025 | [5] -0.025 | [6] -0.075 | givinostat -0.112 | barasertib 0.041

APIP (UniProt Q96GX9)
inactive: [1] 0.01 | [2] 0.007 | [3] 0.033 | [4] 0.014 | Nexturastat A -0.044 | vemurafenib 0.01 | [5] -0.004 | [6] -0.021 | givinostat 0.012 | barasertib -0.041

ANO6 isoform 2 (UniProt Q4KMQ2)
inactive: [1] -0.042 | [2] -0.003 | [3] 0.023 | [4] 0.03 | Nexturastat A -0.063 | vemurafenib -0.028 | [5] 0.023 | [6] -0.056 | givinostat -0.014 | barasertib -0.014

Looked up one by one from the list above (two):
ANKRD54 (UniProt Q6NXT1)
inactive: [1] -0.021 | [2] 0.004 | [3] 0.029 | [4] 0.124 | Nexturastat A 0.027 | vemurafenib 0 | [5] 0.03 | [6] -0.022 | givinostat -0.016 | barasertib 0.023

ANO6 isoform 2 (UniProt Q4KMQ2)
inactive: [1] -0.042 | [2] -0.003 | [3] 0.023 | [4] 0.03 | Nexturastat A -0.063 | vemurafenib -0.028 | [5] 0.023 | [6] -0.056 | givinostat -0.014 | barasertib -0.014

Later entries

AP1S1 (UniProt P61966)
inactive: [1] 0.054 | [2] -0.021 | [3] 0.013 | [4] -0.004 | Nexturastat A -0.068 | vemurafenib 0.024 | [5] 0.104 | [6] 0.065 | givinostat -0.003 | barasertib 0.04

ANP32E (UniProt Q9BTT0)
inactive: [1] 0.041 | [2] -0.098 | [3] 0.091 | [4] -0.02 | Nexturastat A -0.11 | vemurafenib 0.091 | [5] 0.035 | [6] -0.001 | givinostat 0.112 | barasertib 0.076

ANKFY1 isoform 4 (UniProt Q9P2R3)
inactive: [1] -0.105 | [2] 0 | [3] -0.007 | [4] 0.09 | Nexturastat A 0.297 | vemurafenib -0.065 | [5] 0.134 | [6] 0.153 | givinostat 0.067 | barasertib -0.012

ANXA11 (UniProt P50995)
inactive: [1] 0.038 | [2] -0.054 | [3] 0.019 | [4] 0.047 | Nexturastat A -0.056 | vemurafenib 0.068 | [5] 0.053 | [6] 0 | givinostat 0.065 | barasertib 0.027

API5 (UniProt Q9BZZ5)
inactive: [1] 0.001 | [2] 0.023 | [3] 0.019 | [4] 0.028 | Nexturastat A -0.045 | vemurafenib 0.005 | [5] 0.026 | [6] -0.042 | givinostat -0.019 | barasertib 0.01

ARHGAP18 (UniProt Q8N392)
inactive: [1] -0.018 | [2] -0.049 | [3] 0.057 | [4] 0.076 | Nexturastat A 0.05 | vemurafenib 0.07 | [5] 0.06 | [6] 0.037 | givinostat 0.093 | barasertib 0.063

ARF1 (UniProt P84077)
inactive: [1] 0.023 | [2] 0.005 | [3] 0.038 | [4] -0.019 | Nexturastat A -0.173 | vemurafenib -0.043 | [5] -0.004 | [6] 0.016 | givinostat -0.132 | barasertib 0.018

AP3S1 (UniProt Q92572)
inactive: [1] 0.02 | [2] 0.013 | [3] -0.02 | [4] 0.009 | Nexturastat A 0.094 | vemurafenib 0.022 | [5] 0.041 | [6] -0.022 | givinostat 0.032 | barasertib 0.044

ARHGAP1 (UniProt Q07960)
inactive: [1] -0.024 | [2] -0.022 | [3] -0.009 | [4] 0.012 | Nexturastat A 0.03 | vemurafenib 0.002 | [5] 0.052 | [6] -0.018 | givinostat -0.014 | barasertib 0.006

ANTXR2 isoform 4 (UniProt P58335)
inactive: [1] -0.01 | [2] 0.029 | [3] 0.028 | [4] -0.004 | Nexturastat A -0.059 | vemurafenib -0.014 | [5] -0.006 | [6] -0.02 | givinostat 0.016 | barasertib -0.022

APOBEC3D (UniProt Q96AK3)
inactive: [1] 0.022 | [2] 0.01 | [3] -0.05 | [4] 0 | Nexturastat A 0.177 | vemurafenib -0.188 | [5] 0.057 | [6] 0.11 | givinostat 0.06 | barasertib -0.013

ANKRD28 (UniProt O15084)
inactive: [1] 0.028 | [2] -0.013 | [3] -0.008 | [4] 0.057 | Nexturastat A 0.002 | vemurafenib -0.003 | [5] 0.028 | [6] -0.006 | givinostat -0.028 | barasertib 0.005

ANXA2 isoform 2 (UniProt P07355)
inactive: [1] 0.088 | [2] -0.021 | [3] -0.025 | [4] 0.076 | Nexturastat A -0.086 | vemurafenib 0.044 | [5] 0.022 | [6] 0.013 | givinostat -0.027 | barasertib 0.008

ARF4 (UniProt P18085)
inactive: [1] 0.022 | [2] -0.014 | [3] 0 | [4] 0.012 | Nexturastat A -0.095 | vemurafenib 0.02 | [5] 0.022 | [6] 0.023 | givinostat 0.016 | barasertib 0.048

ARFIP1 (UniProt P53367)
inactive: [1] -0.031 | [2] 0.042 | [3] 0.022 | [4] -0.006 | Nexturastat A -0.081 | vemurafenib -0.026 | [5] 0.084 | [6] 0.045 | givinostat 0.058 | barasertib 0.046

ARF5 (UniProt P84085)
inactive: [1] -0.031 | [2] -0.017 | [3] 0 | [4] 0.038 | Nexturastat A -0.091 | vemurafenib -0.001 | [5] 0.011 | [6] -0.011 | givinostat -0.021 | barasertib -0.025

ANPEP (UniProt P15144)
inactive: [1] -0.046 | [2] 0.003 | [3] -0.163 | [4] 0.004 | [5] -0.024 | [6] -0.028 | givinostat -0.008

ANXA7 (UniProt P20073)
inactive: [1] 0.032 | [2] -0.03 | [3] 0.015 | [4] 0.052 | Nexturastat A -0.041 | vemurafenib 0.049 | [5] 0.046 | [6] -0.054 | givinostat 0.009 | barasertib -0.001

ARHGAP22 isoform 2 (UniProt Q7Z5H3)
inactive: [1] -0.141 | [2] -0.093 | [3] 0.043 | vemurafenib 0.058 | [5] -0.103

ANKRD49 (UniProt Q8WVL7)
inactive: [1] 0.03 | [2] -0.046 | [3] 0.048 | [4] 0.011 | Nexturastat A -0.212 | vemurafenib 0.071 | [5] 0.079 | [6] 0.014 | givinostat 0.087 | barasertib -0.001

APOBEC3G (UniProt Q9HC16)
inactive: [1] -0.019 | [2] 0.069 | [3] -0.064 | [4] -0.014 | Nexturastat A 0.172 | vemurafenib 0.069 | [5] -0.083 | [6] 0.051 | givinostat 0.129 | barasertib 0.019
